Laboratory results: article PMC12718132
These are yes or no findings as the source states them, for the method shown. For some assays here: In cells and extracts the contact can be indirect. Tags and fused reporters may be left off the sequences shown. Values belong to the binder of their own block, whether it stands above or below them.

Tests used:
[1] = target: T1, PTH1R C-terminally tagged with monomeric NeonGreen (PTH1R^mNG) (human), Q03431; assay: single-molecule TIRF brightness analysis; PTH1R^mNG at ~0.06 detections/um^2 in the plasma membrane of living HEK293 cells; brightness compared with monomeric, dimeric and trimeric mNG controls fused to the PH domain of phospholipase Cdelta1; unliganded and with PTH, PTHrP, LA-PTH, PTH^R25C or PTH^dimer; repeated on a second microscope; details: remark: other sources report otherwise
T1 chain: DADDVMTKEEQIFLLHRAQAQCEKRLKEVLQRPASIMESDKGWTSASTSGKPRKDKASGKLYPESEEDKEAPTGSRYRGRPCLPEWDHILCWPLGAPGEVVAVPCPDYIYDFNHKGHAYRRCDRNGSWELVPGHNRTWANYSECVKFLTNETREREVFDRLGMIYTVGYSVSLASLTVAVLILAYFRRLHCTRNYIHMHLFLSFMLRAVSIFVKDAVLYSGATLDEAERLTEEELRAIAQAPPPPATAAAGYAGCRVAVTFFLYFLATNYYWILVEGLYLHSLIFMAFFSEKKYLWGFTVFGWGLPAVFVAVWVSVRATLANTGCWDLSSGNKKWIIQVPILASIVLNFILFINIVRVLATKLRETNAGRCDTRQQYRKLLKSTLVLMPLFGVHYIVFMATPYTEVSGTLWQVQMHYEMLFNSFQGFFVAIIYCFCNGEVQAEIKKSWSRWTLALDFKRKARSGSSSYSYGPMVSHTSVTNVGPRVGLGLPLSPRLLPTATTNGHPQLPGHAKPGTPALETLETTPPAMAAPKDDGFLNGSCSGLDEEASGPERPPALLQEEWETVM

[2] = target: T2, PTH1R C-terminally tagged with either YFP (PTHR^YFP) or cyan fluorescent protein (PTHR^CFP) (human), Q03431; assay: FRET or BRET; overexpressed CFP- and YFP-tagged constructs in live cells; FRET efficiency by donor recovery after acceptor bleaching; details: remark: other sources report otherwise
T2 chain: T1 chain

binding [1]: no binding
B1: PTH1R C-terminally tagged with monomeric NeonGreen (PTH1R^mNG), Q03431 27-593 (receptor)
chain: T1 chain

binding [2]: no binding
B2: PTH1R C-terminally tagged with either YFP (PTHR^YFP) or cyan fluorescent protein (PTHR^CFP), Q03431 27-593 (receptor)
chain: T1 chain
